Data reported in article PMC7082549.

Target: FLAG/HA-double-tagged METTL8 (human) (UniProt Q9H825)
Test: affinity purification with mass spectrometry; large-scale (>10 L) purification of the FLAG/HA-METTL8 complex from 100 mg HeLaS3 nuclear extract by a scheme of chromatographic steps; FASP mass spectrometry (n = 3); controls: NHS column with IgG, METTL8 KO cells; complex resistant to RNase A

binding: binds
B1: THOC1 (protein, UniProt Q96FV9 1-657)
chain: MSPTPPLFSLPEARTRFTKSTREALNNKNIKPLLSTFSQVPGSENEKKCTLDQAFRGILEEEIINHSSCENVLAIISLAIGGVTEGICTASTPFVLLGDVLDCLPLDQCDTIFTFVEKNVATWKSNTFYSAGKNYLLRMCNDLLRRLSKSQNTVFCGRIQLFLARLFPLSEKSGLNLQSQFNLENVTVFNTNEQESTLGQKHTEDREEGMDVEEGEMGDEEAPTTCSIPIDYNLYRKFWSLQDYFRNPVQCYEKISWKTFLKYSEEVLAVFKSYKLDDTQASRKKMEELKTGGEHVYFAKFLTSEKLMDLQLSDSNFRRHILLQYLILFQYLKGQVKFKSSNYVLTDEQSLWIEDTTKSVYQLLSENPPDGERFSKMVEHILNTEENWNSWKNEGCPSFVKERTSDTKPTRIIRKRTAPEDFLGKGPTKKILMGNEELTRLWNLCPDNMEACKSETREHMPTLEEFFEEAIEQADPENMVENEYKAVNNSNYGWRALRLLARRSPHFFQPTNQQFKSLPEYLENMVIKLAKELPPPSEEIKTGEDEDEEDNDALLKENESPDVRRDKPVTGEQIEVFANKLGEQWKILAPYLEMKDSEIRQIECDSEDMKMRAKQLLVAWQDQEGVHATPENLINALNKSGLSDLAESLTNDNETNS

These are yes or no findings as the source states them, for the method shown. In cells and extracts the contact can be indirect. Here binding means that the protein was enriched with, or labelled near, the bait; the list need not be complete. Tags and fused reporters may be left off the sequences shown.
